Results as given in publication PMC8748430.
No constants are given. Whether binding was seen depends on the method and setting. Some results given as binding are weak or reduced against the parent protein; the word gives no strength. Tags and fused reporters may be left off the sequences shown.

Molecular target: T1, recombinant mouse NPR-C/NPR3 Fc Chimera protein (mouse) (UniProt P70180)
T1 sequence: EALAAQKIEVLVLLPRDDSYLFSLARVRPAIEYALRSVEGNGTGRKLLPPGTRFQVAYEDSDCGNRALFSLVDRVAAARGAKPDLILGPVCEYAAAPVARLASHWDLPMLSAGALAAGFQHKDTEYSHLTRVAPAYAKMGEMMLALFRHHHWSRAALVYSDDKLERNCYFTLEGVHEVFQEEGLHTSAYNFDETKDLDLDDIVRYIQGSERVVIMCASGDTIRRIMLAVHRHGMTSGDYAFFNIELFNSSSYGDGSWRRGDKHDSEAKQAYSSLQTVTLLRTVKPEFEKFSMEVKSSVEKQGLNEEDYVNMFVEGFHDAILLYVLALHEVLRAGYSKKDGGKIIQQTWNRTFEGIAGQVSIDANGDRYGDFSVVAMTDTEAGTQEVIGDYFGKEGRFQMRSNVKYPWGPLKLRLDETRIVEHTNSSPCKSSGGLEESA
Test: ELISA; competition ELISA: wells of a 96-well high-binding plate coated with 100 ng mouse NPR-C Fc chimera, blocked with 1% BSA/PBS; 100 µl of 200 ng/ml Musclin alone or with increasing amounts of CNP, overnight at 4 °C; bound Musclin detected with anti-Musclin antibody and HRP secondary antibody; relative binding from a Musclin standard curve; both purified

B1: Musclin (ligand, UniProt P61364 26-130)
chain: FSVDLASQEFGTASLQSPPTAREEKSATELSAKLLRLDDLVSLENDVFETKKKRSFSGFGSPLDRLSAGSVEHRGKQRKAVDHSKKRFGIPMDRIGRNRLSSSRG
How did the binding turn out when B1 was run?
Its binding is “binds”.
